The source of these data is patent publication US20260325487A1 (BS BIOTECHNA SPOLKA AKCYJNA, priority 2023, published 2026).

Test [1] has as its system NCI-H226. Kind of test: SRB anti-proliferative assay, NCI-H226, with CalcuSyn combination index (Example 1). The class given is cell-based. As to conditions: Homo sapiens, NCI-H226, 72 h, read-out: Zah. (inhibition of proliferation). The method, then: (§1) Cells were thawed from ampoules stored in liquid nitrogen and cultured in petri dishes in appropriate culture medium according to Table 2, in a humidified 5% CO2 atmosphere at 37° C. Cells were passaged twice weekly using EDTA-Trypsin solution, pH 8. Counted cells with a viability of at least 90% as assessed with Trypan-Blue solution were used for anti-proliferative assays.
(§2) Twenty-four hours before the addition of the test compounds/combinations, cells were seeded into 384-well plates at 50 μL/well and a density of 10^3 cells/well, in the appropriate culture medium.
(§3) Solutions of the compounds were diluted in the test medium-RPMI-1640 and Opti-MEM in a 1:1 ratio, and the medium was supplemented with 2 mM glutamine and 5% fetal bovine serum FBS. After 72 h, colourimetric assessment of cell growth was performed by SRB. […] Unbound dye was removed by washing the plates (4×) in 1% (v/v) acetic acid, and protein-bound dye was extracted with 10 mM unbuffered Tris base and the optical density (A=540 nm) was determined in a BioTek Synergy H4 Hybrid computer microplate reader (BioTek Instruments USA). The entire washing/staining procedure was performed using a BioTek EL406 washing station (BioTek Instruments USA). The raw absorbance results were analysed in Microsoft Excel software using the formula:
(§4) [formula] • Where: • % Zahlnh-inhibition of proliferation • Am—absorbance of wells without cells (medium) • Ak—absorbance of control wells (cells treated with pure culture medium) • Ap—absorbance of wells treated with compounds
(§5) Each compound at the indicated concentrations was tested in triplicate in one experiment. Each experiment was repeated three times. Data analysis was supplemented with synergy assessment using CalcuSyn software. […] A CI value below 0.8 indicates synergism, 0.8-1.2 an additive effect, above 1.2 an antagonism.

Test [2] deals with LN229. In words: SRB anti-proliferative assay, LN229, with CalcuSyn combination index (Example 1). As to conditions: Homo sapiens, LN-229, 72 h, read-out: Zah. (inhibition of proliferation). Format: cell-based. The method, then:
as §1, §2, §3, §4, §5

On to `CN[C@@H]1C[C@H]2O[C@@](C)([C@@H]1OC)n1c3ccccc3c3c4c(c5c6ccccc6n2c5c31)C(=O)NC4` [Staurosporine, staurosporine], for which, in test [1], the inhibition at 0.0031 µM is 24.2%, the inhibition at 0.01 µM is 33.2%, the inhibition at 0.03 µM is 41.6% and the inhibition at 0.1 µM was 48%. In test [1], the inhibition at 0.3124 µM was 73.7%, the inhibition at 1 µM is 93.8%, the inhibition at 3.1392 µM is 98.4% and the inhibition at 10 µM was 97.7%. In test [2], the inhibition at 0.0003163 µM was 31.1%, the inhibition at 0.001 µM is 33.7%, the inhibition at 0.0032 µM was 35.8% and the inhibition at 0.01 µM was 49.8%. Besides, in test [2], the inhibition at 0.0316 µM was 60.4%, the inhibition at 0.1 µM was 70.2% and the inhibition at 0.3163 µM was 81.4%.
